PubChem BioAssay AID1159578, Peter MacCallum Cancer Centre | 2015
Here is one part, drawn at random, of about 18,000 reagents. About 1,030 of them (5.7%) were called active. 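Inactive calls also include pools with fewer than 3300 nuclei, whose migration was not assessed.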 Raw values vary from plate to plate and are shown uncorrected.

- Purpose: 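Knock-downs that alter how fast lymphatic endothelial cells migrate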 (primary screen)
- Cell system: human lymphatic endothelial cells
- Reagent: siRNA pool against human genes, 40 nM
- Timing: 48 h after transfection
- Read-out: 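High-content imaging of dye-stained cells in a scratch assay measures filled wound area and nuclei per well; duplicate means given as ratio to mock and robust z-score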
- Reading the numbers: migration robust z-score: higher = faster migration into the scratch; migration relative to mock: higher = more scratch area covered than mock; nuclei per well: higher = more cells in the well
- Active means: 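Pools averaging fewer than 3300 nuclei are never called; remaining pools count as changed when migration robust z lies outside -2 to 2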
- Calls: active = migration changed; inactive = no migration change, or too few cells

| target gene | migration robust z-score | migration class with cell-count check | migration relative to mock | nuclei per well, duplicate mean | Call |
| --- | --- | --- | --- | --- | --- |
| CLDN20 (GeneID 49861) | 1.12 | migration z between -2 and 2; enough cells | 1.18 | 6916 | inactive |
| VIT (GeneID 5212) | 0.3 | migration z between -2 and 2; enough cells | 0.96 | 6522 | inactive |
| PLIN4 (GeneID 729359) | 0.02 | migration z between -2 and 2; enough cells | 0.89 | 5666 | inactive |
| MOB3B (GeneID 79817) | -0.23 | migration z between -2 and 2; enough cells | 0.83 | 4622 | inactive |
| CYP1A2 (GeneID 1544) | 0.29 | migration z between -2 and 2; enough cells | 0.86 | 4824 | inactive |
| IFNA5 (GeneID 3442) | -0.92 | migration z between -2 and 2; enough cells | 0.66 | 5719 | inactive |
| NOXO1 (GeneID 124056) | 0.84 | migration z between -2 and 2; enough cells | 1.1 | 6224 | inactive |
| AADAC (GeneID 13) | -0.7 | migration z between -2 and 2; enough cells | 0.67 | 5634 | inactive |
| FBXL6 (GeneID 26233) | 0.67 | migration z between -2 and 2; enough cells | 0.94 | 5376 | inactive |
| PRMT3 (GeneID 10196) | 0.21 | migration z between -2 and 2; enough cells | 0.84 | 6344 | inactive |
| HSDL2 (GeneID 84263) | -0.39 | migration z between -2 and 2; enough cells | 0.78 | 6025 | inactive |
| GUF1 (GeneID 60558) | 0.06 | migration z between -2 and 2; enough cells | 0.9 | 6194 | inactive |
| PCARE (GeneID 388939) | 0.25 | migration z between -2 and 2; enough cells | 0.95 | 5185 | inactive |
| KLHL38 (GeneID 340359) | -0.34 | migration z between -2 and 2; enough cells | 0.8 | 3960 | inactive |
| C5orf15 (GeneID 56951) | 1.15 | migration z between -2 and 2; enough cells | 1.19 | 5799 | inactive |
| HINT2 (GeneID 84681) | -1.82 | under 3300 nuclei; migration not judged | 0.42 | 3171 | inactive |
| ATF5 (GeneID 22809) | -0.08 | migration z between -2 and 2; enough cells | 0.79 | 6312 | inactive |
| SPTLC3 (GeneID 55304) | -0.34 | migration z between -2 and 2; enough cells | 0.8 | 6788 | inactive |
| LRP2 (GeneID 4036) | 0.1 | migration z between -2 and 2; enough cells | 0.92 | 6972 | inactive |
| BTBD10 (GeneID 84280) | -0.8 | migration z between -2 and 2; enough cells | 0.65 | 5516 | inactive |
| TCEANC2 (GeneID 127428) | 2.21 | migration z above 2; enough cells | 1.46 | 4236 | active |
| TRMT2B (GeneID 79979) | 0.8 | migration z between -2 and 2; enough cells | 0.96 | 5184 | inactive |
| CALCRL (GeneID 10203) | -0.05 | migration z between -2 and 2; enough cells | 0.8 | 8075 | inactive |

Only “nuclei per well, duplicate mean” (3 entries from above):
GUF1 (GeneID 60558): 6194
PCARE (GeneID 388939): 5185
KLHL38 (GeneID 340359): 3960
